Assay [1] has as its target Aβ1-40 variant G38A expressed as GST fusion protein. The assay is described as follows: ELISA on immobilized GST fusion proteins (0.25 µg per well), antibody at 2 nM.
Assay [2] shares this target. In words: ELISA: GST fusion protein immobilized 0.25 µg per well, antibody at 2 nM, biotin goat anti-mouse (H+L) + streptavidin-HRP, OD450. Background: ELISA stands for enzyme-linked immunosorbent assay.

No constants are given. Whether binding was seen depends on the method and setting. A result given as binding can be weak or reduced; the word gives no strength.

B1: monoclonal antibody 2286 (produced by hybridoma 8A1.2A1) (antibody, V domains shown)
VH: EVKLLESGGGLVQPGGSLKLSCAASGFDFSRYWMNWVRQAPGKGLEWIGEINPDSSTINYTPSLKDKFIISRDNAKNTLYLQMSKVRSEDTALYYCARQMGYWGQGTTLTVSS
VL: DIQMTQTTSSLSASLGDRVTISCSASQGISNYLNWFQQKPDGTVKLLIYYTSSLHSGVPSRFSGSGSGTDYSLTISNLEPEDIATYYCQQYRKLPYTFGGGTKLEIKR
For B1, the binding result in assay [1] and in assay [2] was “binds” each time.

For the origin of these results see US20040146512A1.
